The target in assay [1] is T1, ProtA-TEV-tagged Syo1 K74E/K76E/R118E (S. cerevisiae) (UniProt Q07395).
T1 sequence: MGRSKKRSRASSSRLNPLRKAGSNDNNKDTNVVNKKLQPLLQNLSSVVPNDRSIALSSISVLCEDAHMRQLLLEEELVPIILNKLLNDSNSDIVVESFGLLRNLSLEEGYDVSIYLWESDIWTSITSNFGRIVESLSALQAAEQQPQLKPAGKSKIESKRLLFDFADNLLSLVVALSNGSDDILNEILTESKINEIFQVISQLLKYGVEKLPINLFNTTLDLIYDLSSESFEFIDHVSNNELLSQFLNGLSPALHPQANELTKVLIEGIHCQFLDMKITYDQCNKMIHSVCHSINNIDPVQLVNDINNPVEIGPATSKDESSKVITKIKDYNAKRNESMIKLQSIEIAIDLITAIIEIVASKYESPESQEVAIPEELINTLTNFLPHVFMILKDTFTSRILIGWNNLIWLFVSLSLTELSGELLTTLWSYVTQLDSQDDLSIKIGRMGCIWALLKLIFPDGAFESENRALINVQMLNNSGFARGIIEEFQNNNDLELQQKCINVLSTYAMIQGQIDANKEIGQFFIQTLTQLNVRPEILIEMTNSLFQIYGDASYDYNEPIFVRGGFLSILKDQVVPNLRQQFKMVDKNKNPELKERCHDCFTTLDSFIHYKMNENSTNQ
The experiment in a line: co-IP; split-tag affinity purification of overexpressed ProtA-TEV-tagged Syo1 or Syo1-AB with FLAG-tagged uL18 or uL18 G169S from yeast; final eluate by SDS-PAGE, Coomassie.

The target of assay [2] is T2, ProtA-TEV-tagged scSyo1 (S. cerevisiae) (UniProt Q07395).
T2 sequence: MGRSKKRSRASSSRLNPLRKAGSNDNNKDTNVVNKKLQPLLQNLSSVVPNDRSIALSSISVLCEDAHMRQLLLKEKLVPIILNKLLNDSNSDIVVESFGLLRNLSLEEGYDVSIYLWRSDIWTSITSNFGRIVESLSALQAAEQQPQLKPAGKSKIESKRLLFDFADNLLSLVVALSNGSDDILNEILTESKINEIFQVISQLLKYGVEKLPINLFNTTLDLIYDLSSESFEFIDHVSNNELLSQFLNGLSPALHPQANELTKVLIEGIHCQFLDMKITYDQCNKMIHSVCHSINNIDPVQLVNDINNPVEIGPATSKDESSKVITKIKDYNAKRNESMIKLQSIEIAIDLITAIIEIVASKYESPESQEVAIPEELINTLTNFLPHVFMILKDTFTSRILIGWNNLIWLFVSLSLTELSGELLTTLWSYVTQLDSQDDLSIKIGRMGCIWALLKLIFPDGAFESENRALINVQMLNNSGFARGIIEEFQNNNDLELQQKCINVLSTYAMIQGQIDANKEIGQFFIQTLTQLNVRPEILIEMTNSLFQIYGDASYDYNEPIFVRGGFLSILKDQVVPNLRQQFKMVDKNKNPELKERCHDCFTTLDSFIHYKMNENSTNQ
The assay is described as above.

Binding data for two molecules are collected here from PMC10442235.

No constants are given. Whether binding was seen depends on the method and setting. Binding seen in cells or lysates may run through a third protein. Some results given as binding are weak or reduced against the parent protein; the word gives no strength. Where a sequence is shown, tags or fusion partners need not be part of it.

B1: FLAG-tagged scuL18 (protein, UniProt P26321 1-297)
chain: MAFQKDAKSSAYSSRFQTPFRRRREGKTDYYQRKRLVTQHKAKYNTPKYRLVVRFTNKDIICQIISSTITGDVVLAAAYSHELPRYGITHGLTNWAAAYATGLLIARRTLQKLGLDETYKGVEEVEGEYELTEAVEDGPRPFKVFLDIGLQRTTTGARVFGALKGASDGGLYVPHSENRFPGWDFETEEIDPELLRSYIFGGHVSQYMEELADDDEERFSELFKGYLADDIDADSLEDIYTSAHEAIRADPAFKPTEKKFTKEQYAAESKKYRQTKLSKEERAARVAAKIAALAGQQ
For B1, the binding entry in assay [1] and in assay [2] was “binds” in each case.

B2: FLAG-tagged scuL18 G169S (protein, UniProt P26321 1-297)
chain: MAFQKDAKSSAYSSRFQTPFRRRREGKTDYYQRKRLVTQHKAKYNTPKYRLVVRFTNKDIICQIISSTITGDVVLAAAYSHELPRYGITHGLTNWAAAYATGLLIARRTLQKLGLDETYKGVEEVEGEYELTEAVEDGPRPFKVFLDIGLQRTTTGARVFGALKGASDSGLYVPHSENRFPGWDFETEEIDPELLRSYIFGGHVSQYMEELADDDEERFSELFKGYLADDIDADSLEDIYTSAHEAIRADPAFKPTEKKFTKEQYAAESKKYRQTKLSKEERAARVAAKIAALAGQQ
Consider B2, for which the binding result in assay [1] and in assay [2] was “binds” in each case.
